Data on 2 molecules can be found in PMC9263144.

The chains behind the UniProt entries cited, without tags or fusion partners. Where a name states a change or a piece, a line headed by the entry shows the natural chain unless it says otherwise.
UniProt Q8NFU7: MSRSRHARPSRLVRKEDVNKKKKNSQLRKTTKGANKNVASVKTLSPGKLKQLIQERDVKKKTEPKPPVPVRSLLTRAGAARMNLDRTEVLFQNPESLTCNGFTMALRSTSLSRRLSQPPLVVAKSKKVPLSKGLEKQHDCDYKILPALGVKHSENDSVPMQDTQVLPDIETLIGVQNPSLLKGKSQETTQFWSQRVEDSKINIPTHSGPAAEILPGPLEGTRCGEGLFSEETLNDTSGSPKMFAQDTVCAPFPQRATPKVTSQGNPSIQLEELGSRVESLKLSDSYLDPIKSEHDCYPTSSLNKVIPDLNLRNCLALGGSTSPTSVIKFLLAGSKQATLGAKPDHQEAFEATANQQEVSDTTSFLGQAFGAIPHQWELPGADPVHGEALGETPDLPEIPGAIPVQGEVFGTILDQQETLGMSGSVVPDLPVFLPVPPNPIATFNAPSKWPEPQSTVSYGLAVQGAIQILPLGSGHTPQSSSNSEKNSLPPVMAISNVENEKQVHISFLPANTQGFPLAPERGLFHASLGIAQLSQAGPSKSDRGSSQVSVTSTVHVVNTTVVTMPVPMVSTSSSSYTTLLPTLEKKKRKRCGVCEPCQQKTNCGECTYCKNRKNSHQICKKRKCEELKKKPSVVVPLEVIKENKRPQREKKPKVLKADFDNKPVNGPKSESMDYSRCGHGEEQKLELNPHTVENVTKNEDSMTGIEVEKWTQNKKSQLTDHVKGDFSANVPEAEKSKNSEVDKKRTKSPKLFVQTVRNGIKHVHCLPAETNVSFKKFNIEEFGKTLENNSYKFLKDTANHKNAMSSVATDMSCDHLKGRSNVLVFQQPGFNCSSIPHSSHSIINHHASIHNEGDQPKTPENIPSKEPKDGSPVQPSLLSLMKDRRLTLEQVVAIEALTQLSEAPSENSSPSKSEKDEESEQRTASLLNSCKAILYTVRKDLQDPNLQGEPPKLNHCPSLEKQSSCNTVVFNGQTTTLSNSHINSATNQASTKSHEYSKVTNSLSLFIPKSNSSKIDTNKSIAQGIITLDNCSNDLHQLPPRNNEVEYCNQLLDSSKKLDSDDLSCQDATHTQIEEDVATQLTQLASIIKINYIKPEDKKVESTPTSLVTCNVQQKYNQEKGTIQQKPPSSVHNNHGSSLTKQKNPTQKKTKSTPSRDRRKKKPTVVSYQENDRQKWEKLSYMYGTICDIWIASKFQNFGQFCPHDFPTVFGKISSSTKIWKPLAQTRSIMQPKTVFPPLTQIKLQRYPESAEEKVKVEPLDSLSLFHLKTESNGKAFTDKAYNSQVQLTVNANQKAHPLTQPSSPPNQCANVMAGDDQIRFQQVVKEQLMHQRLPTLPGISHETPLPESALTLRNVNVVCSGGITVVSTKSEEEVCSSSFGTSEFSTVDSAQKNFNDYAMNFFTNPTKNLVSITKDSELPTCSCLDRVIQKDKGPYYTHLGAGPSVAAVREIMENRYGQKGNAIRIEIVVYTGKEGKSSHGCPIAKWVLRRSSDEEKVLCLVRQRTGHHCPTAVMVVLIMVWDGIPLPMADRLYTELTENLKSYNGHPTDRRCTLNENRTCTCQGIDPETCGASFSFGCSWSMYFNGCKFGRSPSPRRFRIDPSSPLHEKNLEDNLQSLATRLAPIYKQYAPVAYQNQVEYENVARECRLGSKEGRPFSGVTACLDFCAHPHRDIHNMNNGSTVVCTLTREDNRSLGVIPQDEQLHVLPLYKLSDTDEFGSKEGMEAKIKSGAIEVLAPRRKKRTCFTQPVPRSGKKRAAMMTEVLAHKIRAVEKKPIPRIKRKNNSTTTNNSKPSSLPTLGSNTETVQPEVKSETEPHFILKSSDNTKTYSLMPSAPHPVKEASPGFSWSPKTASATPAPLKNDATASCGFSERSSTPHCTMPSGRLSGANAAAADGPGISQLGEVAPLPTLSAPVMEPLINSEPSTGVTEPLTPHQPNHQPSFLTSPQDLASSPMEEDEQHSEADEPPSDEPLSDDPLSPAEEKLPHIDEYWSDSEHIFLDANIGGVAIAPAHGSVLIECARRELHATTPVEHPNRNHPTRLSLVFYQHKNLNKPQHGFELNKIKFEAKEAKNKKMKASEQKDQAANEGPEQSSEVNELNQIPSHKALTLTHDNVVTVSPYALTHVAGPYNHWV

Test [1] addresses T1, FOXA2 (human (endogenous in H1 hESC-derived cells)) (UniProt Q9Y261).
T1 sequence: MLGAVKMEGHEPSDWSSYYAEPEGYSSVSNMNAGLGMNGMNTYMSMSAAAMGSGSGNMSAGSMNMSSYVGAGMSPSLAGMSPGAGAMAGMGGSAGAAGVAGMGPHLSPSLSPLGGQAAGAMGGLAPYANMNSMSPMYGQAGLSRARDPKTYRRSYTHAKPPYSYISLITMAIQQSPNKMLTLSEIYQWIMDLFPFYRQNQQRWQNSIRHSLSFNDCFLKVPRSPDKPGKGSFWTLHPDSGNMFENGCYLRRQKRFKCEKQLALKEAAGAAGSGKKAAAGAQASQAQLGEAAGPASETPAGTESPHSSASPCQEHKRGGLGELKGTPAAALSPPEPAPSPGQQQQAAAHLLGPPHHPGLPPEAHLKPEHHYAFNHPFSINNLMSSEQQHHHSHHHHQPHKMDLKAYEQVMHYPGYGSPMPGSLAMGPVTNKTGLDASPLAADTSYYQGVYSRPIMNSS
Put plainly: co-IP; lysate (4 mg) of TKO-TET1FL cells at the DE stage, sonicated, with or without 20 U nuclease at 4 °C for 30 min; precipitated with mouse anti-FLAG or goat anti-FOXA2 antibody overnight at 4 °C and protein A/G magnetic beads; washes with 0.3 M KCl and 0.1 M KCl buffers; immunoblot of TET1 or FOXA2; TKO cells as control.

Test [2] has as its target C-terminal FLAG-tagged human full-length TET1 (human) (UniProt Q8NFU7). The test is described as above.

These are yes or no findings as the source states them, for the method shown. Binding seen in cells or lysates may run through a third protein. Some binding calls cover weakened binding; strength is not graded here.

Consider “C-terminal FLAG-tagged human full-length TET1 (from UniProt Q8NFU7-1 1-2136) (enzyme)”, for which the binding entry in test [1] is on record as “binds”.

B1: FOXA2 (protein, UniProt Q9Y261 1-457)
chain: T1 sequence
Regarding B1, the binding entry in test [2] is reported as “binds”.
